Test results: PubChem BioAssay AID256 (DTP/NCI, 2004)
The list is a part of this screen's results and no random one: it gathers tests that were run many times, whatever their T/C, doses with no T/C, and many T/C values between a quarter and a half above the control. Other doses and runs of a compound stand elsewhere. T/C is the treated group as % of the vehicle group. Some entries give survivors of the animals treated and no T/C: the source holds a T/C of zero for them, seemingly a mark for toxic or unscored doses. Some survivor counts are full or nearly so, which does not show that the dose was tolerated: the source hardly ever lists a survival T/C far under the control, and the zero likely stands for such cases as well. Counts of survivors are from the toxicity check (mostly the fifth day) where no day follows; animals may have died later. Schedule codes are those of the source, taken here to give the interval after Q, in days (D) or hours (H), and the number of doses after X. Where survival is the endpoint, the PubChem record calls one and a half times the control and up active, and a quarter to a half above the control has no call in these data; cut-offs in other NCI protocols can differ.

Test system: CD2F1 mice, L1210 leukemia ip, survival T/C
Assay: NCI In Vivo Anticancer Drug Screen. Data for tumor model L1210 Leukemia (intraperitoneal) in CD2F1 (CDF1) mice
Conditions: higher T/C = longer survival
How it was run: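 Activity against a transplanted murine tumor was judged by comparing the compound group with a vehicle group. The outcome in the treated animals was divided by that in the controls.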

[1] = T/C endpoint: mean survival time, dose: 100.0 mg/kg/injection, schedule: Q04DX003 (ip), vehicle: saline with Tween-80
[2] = T/C endpoint: mean survival time, dose: 400.0 mg/kg/injection, schedule: Q04DX003 (ip), vehicle: saline
[3] = T/C endpoint: mean survival time, dose: 200.0 mg/kg/injection, schedule: Q01DX009 (ip), vehicle: saline with Tween-80

For `O/N=c1/ccn(O)c2ccccc12`, the T/C (T/C endpoint: mean survival time, dose: 1.0 mg/kg/injection, schedule: Q01DX005 (ip), vehicle: saline) was 135 % of control, the T/C (T/C endpoint: mean survival time, dose: 1.0 mg/kg/injection, schedule: Q03HX024 (ip), vehicle: saline) was 131 % of control and the T/C (T/C endpoint: mean survival time, dose: 2.0 mg/kg/injection, schedule: Q01DX005 (ip), vehicle: saline) was 141 % of control. For the same compound, the T/C (T/C endpoint: mean survival time, dose: 2.0 mg/kg/injection, schedule: Q01DX009 (ip), vehicle: saline) was 125 % of control, the T/C (T/C endpoint: mean survival time, dose: 2.0 mg/kg/injection, schedule: Q03HX008 (ip), vehicle: saline) was 134 % of control and the T/C (T/C endpoint: mean survival time, dose: 2.0 mg/kg/injection, schedule: Q03HX016 (ip), vehicle: saline) was 134 % of control. For the same compound, the T/C (T/C endpoint: mean survival time, dose: 2.0 mg/kg/injection, schedule: Q04DX003 (ip), vehicle: saline) was 130 % of control, the T/C (T/C endpoint: mean survival time, dose: 4.0 mg/kg/injection, schedule: Q01DX001 (ip), vehicle: saline) was 126 % of control and the T/C (T/C endpoint: mean survival time, dose: 4.0 mg/kg/injection, schedule: Q01DX005 (ip), vehicle: saline) was 142 % of control. For the same compound, the T/C (T/C endpoint: mean survival time, dose: 4.0 mg/kg/injection, schedule: Q01DX009 (ip), vehicle: saline) was 133 % of control, the survivor count (T/C endpoint: mean survival time, dose: 4.0 mg/kg/injection, schedule: Q03HX008 (ip), vehicle: saline) was 6 of 10 and the survivor count (T/C endpoint: mean survival time, dose: 4.0 mg/kg/injection, schedule: Q03HX016 (ip), vehicle: saline) was 8 of 10. For the same compound, the survivor count (T/C endpoint: mean survival time, dose: 4.0 mg/kg/injection, schedule: Q03HX024 (ip), vehicle: saline) was 10 of 10, the T/C (T/C endpoint: mean survival time, dose: 4.0 mg/kg/injection, schedule: Q04DX003 (ip), vehicle: saline) was 138 % of control and the T/C (T/C endpoint: mean survival time, dose: 4.0 mg/kg/injection, schedule: Q08DX002 (ip), vehicle: saline) was 128 % of control. The T/C (T/C endpoint: mean survival time, dose: 8.0 mg/kg/injection, schedule: Q01DX001 (ip), vehicle: saline) was 132 % of control, the survivor count (T/C endpoint: mean survival time, dose: 8.0 mg/kg/injection, schedule: Q01DX005 (ip), vehicle: saline) was 6 of 10 and the survivor count (T/C endpoint: mean survival time, dose: 8.0 mg/kg/injection, schedule: Q01DX009 (ip), vehicle: saline) was 8 of 10. The survivor count (T/C endpoint: mean survival time, dose: 8.0 mg/kg/injection, schedule: Q03HX008 (ip), vehicle: saline) was 3 of 10, the T/C (T/C endpoint: mean survival time, dose: 8.0 mg/kg/injection, schedule: Q04DX003 (ip), vehicle: saline) was 128 % of control and the T/C (T/C endpoint: mean survival time, dose: 8.0 mg/kg/injection, schedule: Q08DX002 (ip), vehicle: saline) was 137 % of control. For the same compound, the survivor count (T/C endpoint: mean survival time, dose: 16.0 mg/kg/injection, schedule: Q01DX005 (ip), vehicle: saline) was 5 of 10, the survivor count (T/C endpoint: mean survival time, dose: 32.0 mg/kg/injection, schedule: Q01DX001 (ip), vehicle: saline) was 7 of 10 and the survivor count (T/C endpoint: mean survival time, dose: 32.0 mg/kg/injection, schedule: Q04DX003 (ip), vehicle: saline) was 9 of 10. For the same compound, the survivor count (T/C endpoint: mean survival time, dose: 64.0 mg/kg/injection, schedule: Q01DX001 (ip), vehicle: saline) was 4 of 10.

For `N#CC(CC(=O)OCc1ccccc1)NC(=O)OCc1ccccc1` (stereo unspecified), the survivor count [1] was 6 of 6.

`Cc1ccc(Sc2cccc3c(C)c4cccc5c4c(c23)C[S+]5c2ccc(C)cc2)cc1` (stereo unspecified) was tested, and the survivor count (T/C endpoint: mean survival time, dose: 12.5 mg/kg/injection, schedule: Q04DX003 (ip), vehicle: saline with Tween-80) was 3 of 6 and the survivor count (T/C endpoint: mean survival time, dose: 25.0 mg/kg/injection, schedule: Q04DX003 (ip), vehicle: saline with Tween-80) was 3 of 6.

With `CCc1ccc(C(=O)N/N=C(\C)[C@]2(O)Cc3c(O)c4c(c(O)c3[C@@H](OC3CC(N)C(O)C(C)O3)C2)C(=O)c2c(OC)cccc2C4=O)cc1` (stereo partly specified) the T/C (T/C endpoint: mean survival time, dose: 2.0 mg/kg/injection, schedule: Q01DX009 (ip), vehicle: water) was 126 % of control, the T/C (T/C endpoint: mean survival time, dose: 4.0 mg/kg/injection, schedule: Q01DX009 (ip), vehicle: water) was 133 % of control and the survivor count (T/C endpoint: mean survival time, dose: 16.0 mg/kg/injection, schedule: Q01DX009 (ip), vehicle: water) was 6 of 6.

`C=CCNC(=O)c1ccc[n+](CC(=O)NCCCCCCCCCC)c1` was tested, and the survivor count (T/C endpoint: mean survival time, dose: 100.0 mg/kg/injection, schedule: Q04DX003 (ip), vehicle: saline) was 0 of 6, the survivor count (T/C endpoint: mean survival time, dose: 200.0 mg/kg/injection, schedule: Q04DX003 (ip), vehicle: saline) was 0 of 6 and the survivor count [2] was 0 of 6.

`[CH3][Sb]([CH3])([CH3])([O]C(=O)CBr)[O]C(=O)CBr` was tested, and the survivor count [1] was 3 of 6, the survivor count (T/C endpoint: mean survival time, dose: 200.0 mg/kg/injection, schedule: Q04DX003 (ip), vehicle: saline with Tween-80) was 0 of 6 and the survivor count (T/C endpoint: mean survival time, dose: 400.0 mg/kg/injection, schedule: Q04DX003 (ip), vehicle: saline with Tween-80) was 0 of 6.

`CNC(=O)CCC(NC(=O)c1ccc(N(C)Cc2cnc3nc(N)nc(N)c3n2)cc1)C(=O)O` (stereo unspecified) was tested, and the T/C (T/C endpoint: mean survival time, dose: 50.0 mg/kg/injection, schedule: Q01DX009 (ip), vehicle: sodium bicarbonate) was 133 % of control.

`Cn1ncc2c(N)nc(-c3ccccn3)nc21` was tested, and the survivor count (T/C endpoint: mean survival time, dose: 200.0 mg/kg/injection, schedule: Q01DX005 (ip), vehicle: water) was 2 of 6.

`CCN1/C(=C\c2ccc3cc(OC)ccc3[n+]2CC)[Se]c2ccc(OC)cc21` was tested, and the survivor count (T/C endpoint: mean survival time, dose: 19.0 mg/kg/injection, schedule: Q01DX001 (ip), vehicle: other) was 0 of 6, the survivor count (T/C endpoint: mean survival time, dose: 38.0 mg/kg/injection, schedule: Q01DX001 (ip), vehicle: other) was 0 of 6 and the survivor count (T/C endpoint: mean survival time, dose: 75.0 mg/kg/injection, schedule: Q01DX001 (ip), vehicle: other) was 0 of 6. For the same compound, the survivor count (T/C endpoint: mean survival time, dose: 150.0 mg/kg/injection, schedule: Q01DX001 (ip), vehicle: other) was 0 of 6 and the survivor count (T/C endpoint: mean survival time, dose: 300.0 mg/kg/injection, schedule: Q01DX001 (ip), vehicle: other) was 0 of 6.

In the case of `O=C(CNC(=O)c1ccccc1)N/N=C/c1ccncc1`, the survivor count [3] is reported as 4 of 6.

For `CC(C)(CCC(=O)O)C(=O)O`, the survivor count [2] was 2 of 6.

For `CN1CCCN(C)C1c1cc(Cl)ccc1O`, the survivor count (T/C endpoint: mean survival time, dose: 100.0 mg/kg/injection, schedule: Q01DX009 (ip), vehicle: saline with Tween-80) was 2 of 6, the survivor count [3] was 1 of 6 and the survivor count (T/C endpoint: mean survival time, dose: 400.0 mg/kg/injection, schedule: Q01DX009 (ip), vehicle: saline with Tween-80) was 0 of 6.

With `Cc1cc(O)cc(=O)o1` the survivor count (T/C endpoint: mean survival time, dose: 100.0 mg/kg/injection, schedule: Q01DX001 (ip), vehicle: other) was 6 of 6.

With `c1cn[nH]c1` the T/C (T/C endpoint: median survival time, dose: 100.0 mg/kg/injection, schedule: Q01DX009 (ip), vehicle: saline + alcohol) was 126 % of control and the T/C (T/C endpoint: median survival time, dose: 100.0 mg/kg/injection, schedule: Q01DX009 (ip), vehicle: saline) was 132 % of control.

With `CN(C)CCC(=O)c1ccco1` the survivor count (T/C endpoint: mean survival time, dose: 200.0 mg/kg/injection, schedule: Q01DX001 (ip), vehicle: saline) was 3 of 6 and the survivor count (T/C endpoint: mean survival time, dose: 400.0 mg/kg/injection, schedule: Q01DX001 (ip), vehicle: saline) was 0 of 6.

With `Cc1nc(N)nc2c1CCC(=O)N2C` the survivor count (T/C endpoint: mean survival time, dose: 400.0 mg/kg/injection, schedule: Q01DX001 (ip), vehicle: Klucel (hydroxypropylcellulose) (HPC)) was 0 of 6.

With `Cc1c(N=NN(C)C)cc[n+]([O-])c1C` the T/C (T/C endpoint: mean survival time, dose: 12.5 mg/kg/injection, schedule: Q01DX009 (ip), vehicle: water) was 125 % of control, the T/C (T/C endpoint: mean survival time, dose: 16.5 mg/kg/injection, schedule: Q01DX009 (ip), vehicle: water) was 126 % of control and the T/C (T/C endpoint: mean survival time, dose: 25.0 mg/kg/injection, schedule: Q01DX009 (ip), vehicle: water) was 142 % of control. The T/C (T/C endpoint: mean survival time, dose: 50.0 mg/kg/injection, schedule: Q01DX009 (ip), vehicle: water) was 137 % of control, the survivor count (T/C endpoint: mean survival time, dose: 100.0 mg/kg/injection, schedule: Q01DX009 (ip), vehicle: water) was 6 of 6 and the survivor count (T/C endpoint: mean survival time, dose: 200.0 mg/kg/injection, schedule: Q01DX009 (ip), vehicle: water) was 1 of 6.
